Measurements published in publication PMC12638999.
These are yes or no findings as the source states them, for the method shown. In cells and extracts the contact can be indirect. A yes stands for co-enrichment or nearness to the bait. Other partners may have been found. Where a sequence is shown, tags or fusion partners need not be part of it.

By UniProt entry, the sequences of proteins in these tests, tags left out.
UniProt P06733: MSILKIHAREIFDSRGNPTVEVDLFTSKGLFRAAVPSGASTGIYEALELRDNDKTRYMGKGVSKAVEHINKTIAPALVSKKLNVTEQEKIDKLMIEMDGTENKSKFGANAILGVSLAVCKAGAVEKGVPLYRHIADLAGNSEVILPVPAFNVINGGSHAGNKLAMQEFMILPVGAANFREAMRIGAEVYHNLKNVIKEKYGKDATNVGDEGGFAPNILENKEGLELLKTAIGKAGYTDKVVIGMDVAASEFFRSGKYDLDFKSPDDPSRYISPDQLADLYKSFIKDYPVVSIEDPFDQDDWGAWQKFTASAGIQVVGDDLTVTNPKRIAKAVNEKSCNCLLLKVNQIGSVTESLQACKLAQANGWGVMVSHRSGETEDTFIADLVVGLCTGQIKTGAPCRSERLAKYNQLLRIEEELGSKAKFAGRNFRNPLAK

Target: T1, Flag-UCHL3 expressed in HGC-27 cells (UniProt P15374)
T1 sequence: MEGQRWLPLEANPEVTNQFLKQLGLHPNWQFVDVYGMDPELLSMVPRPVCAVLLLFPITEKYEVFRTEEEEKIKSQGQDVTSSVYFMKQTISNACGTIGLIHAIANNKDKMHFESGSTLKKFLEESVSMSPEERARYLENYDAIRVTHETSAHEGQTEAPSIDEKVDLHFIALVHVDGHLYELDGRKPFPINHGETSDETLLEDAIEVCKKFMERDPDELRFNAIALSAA
Assay: affinity purification with mass spectrometry; Flag immunoprecipitation from HGC-27 cells transfected with Flag-UCHL3 or empty vector; SDS-PAGE, silver stain; mass spectrometry

binding: binds
Substance: ENO1, endogenous in HGC-27 cells (from UniProt P06733 1-434)
